# From the supplement of paper PMC8728848
# Some of the results follow.
# B1: Protectin (Homo sapiens), P13987 (protein)
# chain: MGIQGGSVLFGLLLVLAVFCHSGHSLQCYNCPNPTADCKTAVNCSSDFDACLITKAGLQVYNKCWKFEHCNFNDVTTRLRENELTYYCCKKDLCNFNEQLENGGTSLSEKTVLLLVTPFLAAAWSLHP
# Legend:
# Test in all cases: glycan array binding signal (z-score within array); higher = stronger binding
# Conditions in all cases: glycan notation: IUPAC condensed, linker removed
# [1] = target: Gal(a1-3)Gal
# Summary of the method: (§1)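 Negative Z-scores can be read as non-binding. The Z-score is calculated within each array and then averaged across arrays of one protein sequence at different concentrations or buffers and across linkers. Arrays, 3228 in all, were curated from the Consortium for Functional Glycomics database and kept only where the protein sequence was available.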
# [2] = target: Gal(a1-3)Gal(b1-3)GlcNAc
# Summary of the method: as §1
# [3] = target: Gal(a1-3)Gal(b1-3)GlcNAc(b1-2)Man(a1-3)[Gal(a1-3)Gal(b1-3)GlcNAc(b1-2)Man(a1-6)]Man(b1-4)GlcNAc(b1-4)GlcNAc
# Summary of the method: as §1
# [4] = target: Gal(a1-3)Gal(b1-3)GlcNAc(b1-3)GalNAc
# Summary of the method: as §1
# [5] = target: Gal(a1-3)Gal(b1-3)[Fuc(a1-4)]GlcNAc(b1-2)Man(a1-3)[Gal(a1-3)Gal(b1-3)[Fuc(a1-4)]GlcNAc(b1-2)Man(a1-6)]Man(b1-4)GlcNAc(b1-4)GlcNAc
# Summary of the method: as §1
# [6] = target: Gal(a1-3)Gal(b1-4)Glc
# Summary of the method: as §1
# [7] = target: Gal(a1-3)Gal(b1-4)GlcNAc
# Summary of the method: as §1
# [8] = target: Gal(a1-3)Gal(b1-4)GlcNAc(b1-3)GalNAc
# Summary of the method: as §1
# [9] = target: Gal(a1-3)Gal(b1-4)[Fuc(a1-3)]GlcNAc
# Summary of the method: as §1
# [10] = target: Gal(a1-3)Gal(b1-4)[Fuc(a1-3)]GlcNAc(b1-2)Man(a1-3)[Gal(a1-3)Gal(b1-4)[Fuc(a1-3)]GlcNAc(b1-2)Man(a1-6)]Man(b1-4)GlcNAc(b1-4)GlcNAc
# Summary of the method: as §1
# [11] = target: Gal(a1-3)GalNAc
# Summary of the method: as §1
# [12] = target: Gal(a1-3)[Gal(a1-4)]Gal(b1-4)GlcNAc
# Summary of the method: as §1
# [13] = target: Gal(a1-4)Gal(b1-3)GlcNAc(b1-2)Man(a1-3)[Gal(a1-4)Gal(b1-3)GlcNAc(b1-2)Man(a1-6)]Man(b1-4)GlcNAc(b1-4)GlcNAc
# Summary of the method: as §1
# [14] = target: Gal(a1-4)Gal(b1-4)Glc
# Summary of the method: as §1
# [15] = target: Gal(a1-4)Gal(b1-4)GlcNAc
# Summary of the method: as §1
# [16] = target: Gal(a1-4)Gal(b1-4)GlcNAc(b1-2)Man(a1-3)[Gal(a1-4)Gal(b1-4)GlcNAc(b1-2)Man(a1-6)]Man(b1-4)GlcNAc(b1-4)GlcNAc
# Summary of the method: as §1
# [17] = target: Gal(a1-4)Gal(b1-4)GlcNAc(b1-3)Gal(b1-4)Glc
# Summary of the method: as §1
# [18] = target: Gal(a1-4)GlcNAc
# Summary of the method: as §1
# [19] = target: Gal(a1-6)Glc
# Summary of the method: as §1
# [20] = target: Gal(b1-2)Gal
# Summary of the method: as §1
# [21] = target: Gal(b1-3)Gal
# Summary of the method: as §1
# [22] = target: Gal(b1-3)Gal(b1-4)GlcNAc
# Summary of the method: as §1
# [23] = target: Gal(b1-3)Gal(b1-4)GlcNAc(b1-2)Man(a1-3)[Gal(b1-3)Gal(b1-4)GlcNAc(b1-2)Man(a1-6)]Man(b1-4)GlcNAc(b1-4)GlcNAc
# Summary of the method: as §1
# [24] = target: Gal(b1-3)GalNAc
# Summary of the method: as §1
# [25] = target: Gal(b1-3)GalNAc(a1-3)[Fuc(a1-2)]Gal(b1-4)Glc
# Summary of the method: as §1
# [26] = target: Gal(b1-3)GalNAc(a1-3)[Fuc(a1-2)]Gal(b1-4)GlcNAc
# Summary of the method: as §1
# [27] = target: Gal(b1-3)GalNAc(b1-3)Gal(a1-4)Gal(b1-4)Glc
# Summary of the method: as §1
# [28] = target: Gal(b1-3)GalNAc(b1-4)Gal(b1-4)Glc
# Summary of the method: as §1
# [29] = target: Gal(b1-3)GalNAc(b1-4)[Neu5Ac(a2-3)]Gal(b1-4)Glc
# Summary of the method: as §1
# [30] = target: Gal(b1-3)GlcNAc
# Summary of the method: as §1
binder,measurement,setting,value
B1,glycan array binding signal (z-score),[1],-0.696
same,glycan array binding signal (z-score),[2],-1.28
same,glycan array binding signal (z-score),[3],-0.73
same,glycan array binding signal (z-score),[4],1.36
same,glycan array binding signal (z-score),[5],0.748
same,glycan array binding signal (z-score),[6],-0.308
same,glycan array binding signal (z-score),[7],1.53
same,glycan array binding signal (z-score),[8],0.583
same,glycan array binding signal (z-score),[9],2.41
same,glycan array binding signal (z-score),[10],1.03
same,glycan array binding signal (z-score),[11],-1.09
same,glycan array binding signal (z-score),[12],-0.495
same,glycan array binding signal (z-score),[13],0.86
same,glycan array binding signal (z-score),[14],-1.73
same,glycan array binding signal (z-score),[15],-0.039
same,glycan array binding signal (z-score),[16],2.18
same,glycan array binding signal (z-score),[17],-0.279
same,glycan array binding signal (z-score),[18],0.405
same,glycan array binding signal (z-score),[19],0.263
same,glycan array binding signal (z-score),[20],0.173
same,glycan array binding signal (z-score),[21],0.497
same,glycan array binding signal (z-score),[22],1.03
same,glycan array binding signal (z-score),[23],-1.35
same,glycan array binding signal (z-score),[24],0.584
same,glycan array binding signal (z-score),[25],-0.495
same,glycan array binding signal (z-score),[26],-0.989
same,glycan array binding signal (z-score),[27],0.433
same,glycan array binding signal (z-score),[28],-0.023
same,glycan array binding signal (z-score),[29],-0.31
same,glycan array binding signal (z-score),[30],0.046

# Exported bar-delimited: entries from further up
binder | measurement | setting | value
B1 | glycan array binding signal (z-score) | [1] | -0.696
same | glycan array binding signal (z-score) | [2] | -1.28
